Structures can show the parent of a compound that is named as a salt. The list shows a part of the results. Most values come without repeats; read them as rough.
Assays:
Test in all cases: reduction in cell viability relative to untreated/vehicle; higher = more growth inhibition
Details in all cases: 200 nM; 72 h
M229P = tested on: M229P (parental melanoma line)
M229R = tested on: M229R (matched melanoma line resistant to BRAF inhibitors)
M238P = tested on: M238P (parental melanoma line)
M238R = tested on: M238R (matched melanoma line resistant to BRAF inhibitors)
M249P = tested on: M249P (parental melanoma line)
M249R = tested on: M249R (matched melanoma line resistant to BRAF inhibitors)
UACC62P = tested on: UACC62P (parental melanoma line)
UACC62R = tested on: UACC62R (matched melanoma line resistant to BRAF inhibitors)

Measured: reduction in cell viability

Cc1[nH]c(=O)c(C#N)cc1-c1ccc2nccn2c1 [Olprinone]
3.92%: UACC62P
12.4%: M249R
< 0%: all other assays above

C=CCNC1=C2C[C@@H](C)C[C@H](OC)[C@H](O)[C@@H](C)/C=C(\C)[C@H](OC(N)=O)[C@@H](OC)/C=C\C=C(/C)C(=O)NC(=CC1=O)C2=O [Tanespimycin]
37%: M238R
77.3%: UACC62R
43.2%: M238P
67.3%: UACC62P
< 0%: all other assays above

CCOC(=O)C1=C(N)Oc2ccc(Br)cc2C1C(C#N)C(=O)OCC (stereo not given)
< 0%: all assays above

CC[C@@H]1C(=O)N(C)c2cnc(Nc3ccc(C(=O)N[C@H]4CC[C@H](N5CCN(CC6CC6)CC5)CC4)cc3OC)nc2N1C(C)C [Volasertib (BI 6727)]
42.4%: M249R
41.4%: M238P
57%: M229R
70.5%: UACC62R
< 0%: M238R
28.1%: M229P
31.1%: UACC62P
26.6%: M249P

CSCC[C@H](N)C(=O)N[C@@]1(C(=O)O)CS(=O)(=O)[C@H]2[C@H](C(=O)O)[C@H]21
< 0%: all assays above

COc1ccc2c(c1)CCC1C2CCC2(C)C(NCCCCCCN3C(=O)C=CC3=O)CCC12 (stereo not given)
< 0%: all assays above

Nc1ncnc2c1ncn2[C@@H]1O[C@H](CO)[C@@H](O)[C@H]1O [Adenosine]
< 0%: all assays above

O=C(O)C(O)Cc1ccc(O)c(O)c1 (stereo not given) [Sodium Danshensu]
23.6%: UACC62P
< 0%: all other assays above

Cc1ccc(O)c([C@H](CCN(C(C)C)C(C)C)c2ccccc2)c1 [Tolterodine tartrate]
< 0%: all assays above

CC(=O)N1CCN(c2ccc(OCc3nn(C)c(C)c3-c3cccc4c(CCCOc5cc(C)c(Cl)c(C)c5)c(C(=O)O)n(Cc5cccnc5)c34)cc2)CC1
< 0%: all assays above

CCCCCCNC(=O)n1cc(F)c(=O)[nH]c1=O [Carmofur]
0.75%: UACC62P
< 0%: all other assays above

C[C@@H]1[C@H](O)[C@@H](C)/C=C/C=C/C=C/C=C/C=C/C=C/C=C/[C@H](O[C@@H]2O[C@H](C)[C@@H](O)[C@H](N)[C@@H]2O)C[C@@H]2O[C@](O)(C[C@@H](O)C[C@@H](O)[C@H](O)CC[C@@H](O)C[C@@H](O)CC(=O)O[C@H]1C)C[C@H](O)[C@H]2C(=O)O [Amphotericin B]
< 0%: all assays above

C[C@H]1C[C@@H]2[C@H]([C@@H](O)C[C@@]3(C)[C@H]2CC[C@]3(O)C(=O)CO)[C@@]2(C)C=CC(=O)C=C12 [Methylprednisolone]
< 0%: all assays above

N=c1ccn2c(n1)O[C@H]1[C@H](O)[C@@H](CO)O[C@H]12 [Cyclocytidine HCl]
4.22%: M249P
24%: M238P
27.5%: M229R
60.9%: UACC62R
< 0%: all other assays above

Fc1ccc(CNc2ncnc3ccc(F)cc23)cc1 [Spautin-1]
< 0%: all assays above

CCCCCCCCCCCCCCCCCCOP(=O)([O-])OC1CC[N+](C)(C)CC1 [Perifosine]
0.1%: UACC62P
< 0%: all other assays above

Cc1cnc(-c2cc(N3CCN(C(=O)CCS(C)(=O)=O)CC3)ncc2Cl)c(C)c1
< 0%: all assays above

CCCCC(C)(C)[C@H](O)/C=C/[C@H]1[C@H](O)CC(=O)[C@@H]1C/C=C\CCCC(=O)O [16,16-dimethyl PGE2]
< 0%: all assays above

C[C@H](NC(=O)C(=O)Nc1ccccc1C(C)(C)C)C(=O)N[C@@H](CC(=O)O)C(=O)COc1c(F)c(F)cc(F)c1F [Emricasan]
< 0%: all assays above

An excerpt from above in order of SMILES length, low to high:
Fc1ccc(CNc2ncnc3ccc(F)cc23)cc1 [Spautin-1]
< 0%: all assays above

Cc1cnc(-c2cc(N3CCN(C(=O)CCS(C)(=O)=O)CC3)ncc2Cl)c(C)c1
< 0%: all assays above

CCCCC(C)(C)[C@H](O)/C=C/[C@H]1[C@H](O)CC(=O)[C@@H]1C/C=C\CCCC(=O)O [16,16-dimethyl PGE2]
< 0%: all assays above

(cont.)

CCC(=C/[C@H](C)C/C=C/C(C)=C/[C@@H](C)C(=O)[C@@H](C)[C@H](O)[C@@H](C)C/C(C)=C/C(=O)O)/C=C/[C@@H]1OC(=O)C=C[C@@H]1C [Elactocin]
45.7%: M238R
72.7%: M229P
54%: UACC62P
71.2%: M249R
58.1%: M249P
71.6%: M229R
81.2%: M238P
88.6%: UACC62R

Reference: the supplement of paper PMC9015667
